From the supplement of paper PMC10849652
This is one part of the list.

Protein sequences, listed by entry. Tags and fused reporters are not part of them. Lines headed by an entry give the natural chain unless they say otherwise; changes in a name come on top.
UniProt O75208: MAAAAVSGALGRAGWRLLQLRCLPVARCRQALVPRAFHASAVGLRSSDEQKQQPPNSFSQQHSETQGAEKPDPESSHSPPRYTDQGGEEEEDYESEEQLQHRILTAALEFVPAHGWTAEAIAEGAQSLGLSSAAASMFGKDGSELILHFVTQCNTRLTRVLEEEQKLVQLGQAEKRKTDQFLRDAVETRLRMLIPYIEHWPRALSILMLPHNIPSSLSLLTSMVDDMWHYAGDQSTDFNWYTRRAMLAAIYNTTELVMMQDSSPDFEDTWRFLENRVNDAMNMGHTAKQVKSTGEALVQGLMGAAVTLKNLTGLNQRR
UniProt P57737: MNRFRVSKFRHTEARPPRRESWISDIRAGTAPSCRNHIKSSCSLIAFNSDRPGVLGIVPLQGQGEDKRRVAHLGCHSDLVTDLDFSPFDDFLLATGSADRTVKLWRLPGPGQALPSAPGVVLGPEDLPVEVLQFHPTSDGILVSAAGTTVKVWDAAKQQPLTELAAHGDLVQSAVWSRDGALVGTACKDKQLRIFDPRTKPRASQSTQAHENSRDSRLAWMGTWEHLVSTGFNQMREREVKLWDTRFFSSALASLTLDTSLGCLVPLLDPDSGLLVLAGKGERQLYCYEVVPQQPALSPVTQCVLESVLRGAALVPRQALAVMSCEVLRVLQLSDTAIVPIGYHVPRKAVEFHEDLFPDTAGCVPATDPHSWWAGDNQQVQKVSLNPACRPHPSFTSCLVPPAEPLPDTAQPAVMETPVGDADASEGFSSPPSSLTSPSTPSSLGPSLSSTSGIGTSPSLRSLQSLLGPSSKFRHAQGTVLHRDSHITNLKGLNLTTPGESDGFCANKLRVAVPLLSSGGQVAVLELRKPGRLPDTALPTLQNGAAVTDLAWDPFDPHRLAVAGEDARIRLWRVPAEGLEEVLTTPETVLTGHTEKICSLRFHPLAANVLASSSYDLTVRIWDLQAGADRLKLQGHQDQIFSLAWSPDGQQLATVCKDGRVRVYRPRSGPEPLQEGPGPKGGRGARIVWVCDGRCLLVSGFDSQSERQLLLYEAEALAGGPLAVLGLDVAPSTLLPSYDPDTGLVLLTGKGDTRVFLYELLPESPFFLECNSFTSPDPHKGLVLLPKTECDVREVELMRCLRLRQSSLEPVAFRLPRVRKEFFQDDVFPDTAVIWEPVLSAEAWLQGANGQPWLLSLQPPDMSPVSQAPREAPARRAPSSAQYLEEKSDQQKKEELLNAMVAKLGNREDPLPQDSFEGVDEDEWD
UniProt Q86VU5: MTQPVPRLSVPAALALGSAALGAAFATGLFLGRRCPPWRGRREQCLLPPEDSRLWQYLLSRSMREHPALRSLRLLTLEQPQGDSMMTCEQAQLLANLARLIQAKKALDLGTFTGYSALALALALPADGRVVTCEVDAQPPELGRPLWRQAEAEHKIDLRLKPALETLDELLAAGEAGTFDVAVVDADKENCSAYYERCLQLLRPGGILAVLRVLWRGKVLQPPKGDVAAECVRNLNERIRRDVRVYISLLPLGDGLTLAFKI
UniProt P61201: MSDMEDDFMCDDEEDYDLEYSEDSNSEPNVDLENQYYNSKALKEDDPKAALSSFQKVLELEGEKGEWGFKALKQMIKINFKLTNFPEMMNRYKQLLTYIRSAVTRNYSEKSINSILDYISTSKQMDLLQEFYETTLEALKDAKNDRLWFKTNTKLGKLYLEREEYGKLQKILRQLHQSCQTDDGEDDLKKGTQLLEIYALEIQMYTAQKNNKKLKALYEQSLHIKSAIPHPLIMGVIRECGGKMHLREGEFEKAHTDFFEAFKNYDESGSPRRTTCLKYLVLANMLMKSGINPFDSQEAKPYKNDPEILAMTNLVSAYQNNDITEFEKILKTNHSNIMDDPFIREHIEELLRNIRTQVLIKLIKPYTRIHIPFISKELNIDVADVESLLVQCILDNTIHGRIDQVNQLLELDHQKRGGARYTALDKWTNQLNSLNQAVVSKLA
UniProt P36551: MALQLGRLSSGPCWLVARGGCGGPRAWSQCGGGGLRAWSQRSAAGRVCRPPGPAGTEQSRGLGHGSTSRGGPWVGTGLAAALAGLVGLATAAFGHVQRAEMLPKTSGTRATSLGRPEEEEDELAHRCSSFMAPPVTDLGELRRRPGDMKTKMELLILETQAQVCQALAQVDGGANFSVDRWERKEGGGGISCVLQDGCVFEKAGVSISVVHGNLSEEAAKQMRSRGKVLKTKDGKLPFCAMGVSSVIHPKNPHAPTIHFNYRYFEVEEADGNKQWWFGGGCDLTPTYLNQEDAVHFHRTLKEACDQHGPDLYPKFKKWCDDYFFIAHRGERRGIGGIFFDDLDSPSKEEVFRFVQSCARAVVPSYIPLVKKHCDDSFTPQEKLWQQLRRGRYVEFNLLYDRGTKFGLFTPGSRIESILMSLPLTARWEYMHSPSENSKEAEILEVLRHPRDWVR
UniProt Q10570: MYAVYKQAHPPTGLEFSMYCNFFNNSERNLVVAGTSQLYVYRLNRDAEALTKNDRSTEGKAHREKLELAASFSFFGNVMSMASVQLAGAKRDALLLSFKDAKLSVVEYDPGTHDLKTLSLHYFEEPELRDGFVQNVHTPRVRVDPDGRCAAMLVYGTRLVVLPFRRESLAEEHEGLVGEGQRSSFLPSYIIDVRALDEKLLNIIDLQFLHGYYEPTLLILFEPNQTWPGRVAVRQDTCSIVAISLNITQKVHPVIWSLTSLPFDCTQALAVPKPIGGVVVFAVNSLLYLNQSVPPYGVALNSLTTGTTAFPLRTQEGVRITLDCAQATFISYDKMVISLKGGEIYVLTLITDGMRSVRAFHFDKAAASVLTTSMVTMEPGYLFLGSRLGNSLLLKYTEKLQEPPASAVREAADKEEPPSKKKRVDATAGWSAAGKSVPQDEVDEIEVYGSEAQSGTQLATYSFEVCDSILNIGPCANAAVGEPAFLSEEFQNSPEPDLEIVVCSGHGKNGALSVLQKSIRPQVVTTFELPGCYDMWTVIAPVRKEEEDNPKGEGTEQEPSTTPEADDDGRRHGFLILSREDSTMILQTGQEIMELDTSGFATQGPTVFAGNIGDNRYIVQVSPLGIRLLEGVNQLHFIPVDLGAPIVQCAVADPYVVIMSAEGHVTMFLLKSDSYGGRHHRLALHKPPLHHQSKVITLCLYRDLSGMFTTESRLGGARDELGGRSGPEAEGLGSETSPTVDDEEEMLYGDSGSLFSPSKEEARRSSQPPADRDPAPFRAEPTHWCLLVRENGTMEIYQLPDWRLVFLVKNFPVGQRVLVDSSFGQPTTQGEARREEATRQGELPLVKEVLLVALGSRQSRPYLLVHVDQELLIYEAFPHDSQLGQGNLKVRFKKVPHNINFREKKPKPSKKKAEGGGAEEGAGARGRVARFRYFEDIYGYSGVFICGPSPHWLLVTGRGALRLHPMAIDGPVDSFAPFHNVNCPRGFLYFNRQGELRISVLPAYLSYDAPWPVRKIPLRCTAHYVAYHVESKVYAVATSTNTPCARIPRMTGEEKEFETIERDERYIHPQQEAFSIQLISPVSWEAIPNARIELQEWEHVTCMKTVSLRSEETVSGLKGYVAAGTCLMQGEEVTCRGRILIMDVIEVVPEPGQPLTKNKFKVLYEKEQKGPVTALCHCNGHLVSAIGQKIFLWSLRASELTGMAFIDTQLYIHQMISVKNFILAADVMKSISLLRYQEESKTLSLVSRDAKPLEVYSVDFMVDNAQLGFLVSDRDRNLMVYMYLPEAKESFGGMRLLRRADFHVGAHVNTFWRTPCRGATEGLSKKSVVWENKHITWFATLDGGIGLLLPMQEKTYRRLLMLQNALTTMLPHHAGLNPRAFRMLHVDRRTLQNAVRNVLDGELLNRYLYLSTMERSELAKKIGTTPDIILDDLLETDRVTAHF
UniProt Q9P021, whole entry, looked up: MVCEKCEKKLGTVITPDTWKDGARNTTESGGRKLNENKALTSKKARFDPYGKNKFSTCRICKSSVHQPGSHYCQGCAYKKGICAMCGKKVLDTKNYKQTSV
UniProt Q49B96: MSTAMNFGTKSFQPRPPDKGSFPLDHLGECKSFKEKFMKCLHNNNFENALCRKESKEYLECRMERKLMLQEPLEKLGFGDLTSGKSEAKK
UniProt Q7Z5Q1: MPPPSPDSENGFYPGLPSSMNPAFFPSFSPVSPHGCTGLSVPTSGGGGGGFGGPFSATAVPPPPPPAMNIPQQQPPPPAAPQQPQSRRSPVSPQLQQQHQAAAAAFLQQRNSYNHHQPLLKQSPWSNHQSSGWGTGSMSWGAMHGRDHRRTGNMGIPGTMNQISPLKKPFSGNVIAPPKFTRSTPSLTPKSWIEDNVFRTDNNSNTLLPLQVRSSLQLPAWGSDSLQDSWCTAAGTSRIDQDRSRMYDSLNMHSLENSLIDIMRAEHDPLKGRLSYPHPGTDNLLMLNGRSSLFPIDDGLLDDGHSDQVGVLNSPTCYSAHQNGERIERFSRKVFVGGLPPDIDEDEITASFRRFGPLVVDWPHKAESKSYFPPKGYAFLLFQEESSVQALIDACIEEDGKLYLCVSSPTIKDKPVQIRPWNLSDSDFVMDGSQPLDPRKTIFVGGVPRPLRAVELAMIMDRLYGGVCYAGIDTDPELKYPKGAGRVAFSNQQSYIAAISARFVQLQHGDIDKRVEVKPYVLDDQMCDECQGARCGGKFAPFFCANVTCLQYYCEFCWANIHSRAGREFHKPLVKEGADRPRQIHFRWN
UniProt Q6UXH1: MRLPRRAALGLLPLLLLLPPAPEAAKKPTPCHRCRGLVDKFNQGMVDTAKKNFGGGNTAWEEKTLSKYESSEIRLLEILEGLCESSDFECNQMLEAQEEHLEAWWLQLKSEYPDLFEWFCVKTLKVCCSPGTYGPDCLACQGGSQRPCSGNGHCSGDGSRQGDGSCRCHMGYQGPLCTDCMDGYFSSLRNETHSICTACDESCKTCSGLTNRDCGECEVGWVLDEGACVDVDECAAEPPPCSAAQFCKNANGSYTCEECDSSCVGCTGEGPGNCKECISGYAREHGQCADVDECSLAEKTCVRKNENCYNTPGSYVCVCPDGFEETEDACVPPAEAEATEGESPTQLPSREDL
UniProt Q9P000, whole entry, looked up: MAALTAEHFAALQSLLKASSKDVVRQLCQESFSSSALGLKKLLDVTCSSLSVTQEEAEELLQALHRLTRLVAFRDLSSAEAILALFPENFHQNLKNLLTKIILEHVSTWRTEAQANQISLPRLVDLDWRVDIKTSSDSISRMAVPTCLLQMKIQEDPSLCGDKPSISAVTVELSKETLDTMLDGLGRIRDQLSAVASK
UniProt Q96SW2: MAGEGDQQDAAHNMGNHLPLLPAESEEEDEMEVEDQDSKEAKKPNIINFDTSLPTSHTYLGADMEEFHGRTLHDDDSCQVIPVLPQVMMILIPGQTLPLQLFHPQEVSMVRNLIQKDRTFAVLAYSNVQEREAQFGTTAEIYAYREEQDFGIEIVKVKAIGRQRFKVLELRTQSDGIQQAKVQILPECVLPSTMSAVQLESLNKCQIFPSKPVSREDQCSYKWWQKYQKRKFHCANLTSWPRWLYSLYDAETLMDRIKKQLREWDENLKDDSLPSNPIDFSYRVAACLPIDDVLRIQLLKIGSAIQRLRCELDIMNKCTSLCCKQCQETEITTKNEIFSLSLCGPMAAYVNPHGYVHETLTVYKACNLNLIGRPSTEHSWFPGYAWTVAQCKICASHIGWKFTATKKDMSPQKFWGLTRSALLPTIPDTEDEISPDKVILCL
UniProt Q99807: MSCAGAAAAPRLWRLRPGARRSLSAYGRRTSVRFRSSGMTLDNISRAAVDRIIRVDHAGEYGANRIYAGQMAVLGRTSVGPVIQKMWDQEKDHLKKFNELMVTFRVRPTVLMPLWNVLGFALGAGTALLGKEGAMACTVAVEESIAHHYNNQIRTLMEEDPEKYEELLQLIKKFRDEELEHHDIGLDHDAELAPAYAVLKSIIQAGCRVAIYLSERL
UniProt P48729: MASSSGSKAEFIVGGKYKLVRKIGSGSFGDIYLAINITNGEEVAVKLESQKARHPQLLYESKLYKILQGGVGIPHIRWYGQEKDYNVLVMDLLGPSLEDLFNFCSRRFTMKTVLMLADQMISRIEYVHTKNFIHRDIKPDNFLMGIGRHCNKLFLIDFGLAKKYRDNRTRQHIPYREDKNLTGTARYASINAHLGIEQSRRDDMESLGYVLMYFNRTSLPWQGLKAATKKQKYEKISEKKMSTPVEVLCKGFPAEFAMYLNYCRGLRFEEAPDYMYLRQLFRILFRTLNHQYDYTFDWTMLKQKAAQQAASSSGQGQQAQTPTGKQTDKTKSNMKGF
UniProt Q99627: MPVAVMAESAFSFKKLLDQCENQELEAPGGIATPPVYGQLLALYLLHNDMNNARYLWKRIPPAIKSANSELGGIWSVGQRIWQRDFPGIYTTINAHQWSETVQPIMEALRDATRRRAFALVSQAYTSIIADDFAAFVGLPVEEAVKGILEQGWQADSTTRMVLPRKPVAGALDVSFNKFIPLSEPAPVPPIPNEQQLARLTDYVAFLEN

What was measured:
Experiment in all cases: log2 fold change, soluble protein after heating vs DMSO (PISA); higher = thermal stabilisation; K562 cells, 10 uM, 30 min; active = over 0.2 and 3.5 SD of the protein, either way, in both replicates (recomputed)
[1] = compound: CS(=O)(=O)c1ccc(-c2cnc(N)c(C(=O)Nc3ccccc3)n2)cc1
How it was run: (§1)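 K562 cells at 2×10^6 cells/mL were treated for 30 min with 10 μM compound, and aliquots were heated for 3 min over 48°C-58°C before pooling. Extraction used PBS with 0.5% NP-40 at 4°C, and soluble protein was the supernatant after 21,000xg for 90 min, measured by TMTpro 16plex LC-MS/MS with channel sums equalised. Thermal stability values, relative to control samples and from duplicates, are log2 fold changes.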

[2] = compound: C[C@@H](Oc1cc(-c2cnn(C3CCNCC3)c2)cnc1N)c1c(Cl)ccc(F)c1Cl [crizotinib]
How it was run: as §1

[3] = compound: C[C@@H]1COCCN1C2=NC(=NC(=C2)C3(CC3)S(=O)(=O)C)C4=C5C=CNC5=CC=C4
How it was run: as §1

[4] = compound: C[C@H](C1=CC=C(C=C1)C(=O)NC2=C3C=CNC3=NC=C2)N
How it was run: as §1

[5] = compound: Cc1cc(Nc2cc(CN3CCOCC3)c3nc(C)c(Cc4ccc(Cl)cc4F)n3n2)n[nH]1 [gandotinib]
How it was run: as §1

[6] = compound: Cc1cc(SCc2sc(-c3ccc(C(F)(F)F)cc3)nc2C)ccc1OCC(=O)O
How it was run: as §1

[7] = compound: Cc1ccc(-n2nc(C(C)(C)C)cc2NC(=O)Nc2ccc(OCCN3CCOCC3)c3ccccc23)cc1 [doramapimod]
How it was run: as §1

[8] = compound: Cc1ccc(C(=O)N(CCCN)[C@@H](c2nc3cc(Cl)ccc3c(=O)n2Cc2ccccc2)C(C)C)cc1 [ispinesib]
How it was run: as §1

[9] = compound: Cc1ccc(NC(=O)c2ccc(CN3CC[C@H](N(C)C)C3)c(C(F)(F)F)c2)cc1Nc1nccc(-c2cncnc2)n1 [bafetinib]
How it was run: as §1

[10] = compound: Cc1cccc(CC(=O)N2CCc3c2ccc(-c2cn(C)c4ncnc(N)c24)c3F)n1
How it was run: as §1

[11] = compound: Cc1cn(-c2cc(NC(=O)c3ccc(C)c(Nc4nccc(-c5cccnc5)n4)c3)cc(C(F)(F)F)c2)cn1 [nilotinib]
How it was run: as §1

[12] = compound: Cc1nc(Nc2n[nH]c3c2CN(C(=O)N[C@H](CN(C)C)c2ccccc2)C3(C)C)c2sccc2n1
How it was run: as §1

[13] = compound: Cc1nc(Nc2ncc(C(=O)Nc3c(C)cccc3Cl)s2)cc(N2CCN(CCO)CC2)n1 [dasatinib]
How it was run: as §1

[14] = compound: Cc1ncc(-c2ccnc(Nc3ccc(S(C)(=O)=O)cc3)n2)n1C(C)C
How it was run: as §1

[15] = compound: Cn1cc(-c2ccc3c(c2)CCN3C(=O)Cc2cccc(C(F)(F)F)c2)c2c(N)ncnc21
How it was run: as §1

[16] = compound: Cn1cc(-c2ccc3nnc(C(F)(F)c4ccc5ncccc5c4)n3n2)cn1
How it was run: as §1

[17] = compound: Cn1cncc1[C@@](N)(c1ccc(Cl)cc1)c1ccc2c(c1)c(-c1cccc(Cl)c1)cc(=O)n2C [tipifarnib]
How it was run: as §1

[18] = compound: FC(F)(F)c1ccc(/C=C/c2nc(COc3ccc(CCCCn4ccnn4)cc3)co2)cc1 [mubritinib]
How it was run: as §1

[19] = compound: C[C@H](Nc1ncnc2nc[nH]c12)c1cc2cccc(Cl)c2c(=O)n1-c1ccccc1 [duvelisib]
How it was run: as §1

[20] = compound: Cc1cc(Nc2cc(N3CCN(C)CC3)nc(Sc3ccc(NC(=O)C4CC4)cc3)n2)n[nH]1 [tozasertib]
How it was run: as §1

Measured: log2 fold change

COQ9 (UniProt O75208)
inactive: [1] 0.02 | [2] -0.067 | [3] 0.03 | [4] -0.064 | [5] -0.029 | [6] 0.032 | [7] -0.079 | [8] -0.055 | [9] -0.124 | [10] 0.074 | [11] -0.06 | [12] -0.035 | [13] -0.147 | [14] 0.001 | [15] 0.052 | [16] 0.028 | [17] -0.068 | [18] -0.04

CORO7 isoform 3 (UniProt P57737)
inactive: [1] -0.046 | [2] -0.095 | [3] -0.015 | [4] -0.072 | [19] 0.003 | [5] -0.008 | [20] 0.013 | [6] -0.004 | [7] -0.023 | [8] -0.106 | [9] -0.044 | [10] -0.086 | [11] 0.029 | [12] -0.02 | [13] -0.028 | [14] 0.009 | [15] -0.028 | [16] 0.009 | [17] 0.051 | [18] 0.028

COMTD1 (UniProt Q86VU5)
inactive: [1] 0.041 | [2] 0.092 | [3] 0.016 | [4] -0.03 | [19] 0.035 | [5] 0.077 | [20] 0.019 | [6] 0.067 | [7] 0.018 | [8] -0.015 | [9] -0.024 | [10] 0.063 | [11] -0.053 | [12] 0.007 | [13] -0.019 | [14] -0.022 | [15] 0.189 | [16] -0.088 | [17] -0.02 | [18] 0.077

COPS2 (UniProt P61201)
inactive: [1] 0.016 | [2] 0.018 | [3] 0.098 | [4] -0.063 | [19] -0.014 | [5] -0.003 | [20] 0.015 | [6] 0.033 | [7] -0.024 | [8] 0.075 | [9] -0.012 | [10] 0.051 | [11] -0.003 | [12] -0.03 | [13] -0.068 | [14] -0.006 | [15] 0.024 | [16] 0.014 | [17] -0.025 | [18] 0.034

CPOX (UniProt P36551)
inactive: [1] 0.012 | [2] 0.089 | [3] 0.042 | [4] -0.067 | [19] 0.116 | [5] 0.073 | [20] 0.005 | [6] 0.032 | [7] -0.035 | [8] 0.03 | [9] 0.02 | [10] -0.006 | [11] 0.092 | [12] 0.023 | [13] 0.043 | [14] -0.023 | [15] 0.01 | [16] 0.029 | [17] -0.017 | [18] -0.023

CPSF1 (UniProt Q10570)
inactive: [1] -0.015 | [2] -0.021 | [3] -0.185 | [4] 0.048 | [5] -0.068 | [6] 0.161 | [7] 0.09 | [8] 0.036 | [9] 0.026 | [10] -0.007 | [11] 0.065 | [12] -0.002 | [13] -0.037 | [14] -0.014 | [15] -0.077 | [16] -0.14 | [17] 0.026 | [18] -0.007

Two consecutive entries from above, for reference:
COMTD1 (UniProt Q86VU5)
inactive: [1] 0.041 | [2] 0.092 | [3] 0.016 | [4] -0.03 | [19] 0.035 | [5] 0.077 | [20] 0.019 | [6] 0.067 | [7] 0.018 | [8] -0.015 | [9] -0.024 | [10] 0.063 | [11] -0.053 | [12] 0.007 | [13] -0.019 | [14] -0.022 | [15] 0.189 | [16] -0.088 | [17] -0.02 | [18] 0.077

COPS2 (UniProt P61201)
inactive: [1] 0.016 | [2] 0.018 | [3] 0.098 | [4] -0.063 | [19] -0.014 | [5] -0.003 | [20] 0.015 | [6] 0.033 | [7] -0.024 | [8] 0.075 | [9] -0.012 | [10] 0.051 | [11] -0.003 | [12] -0.03 | [13] -0.068 | [14] -0.006 | [15] 0.024 | [16] 0.014 | [17] -0.025 | [18] 0.034

Following part:

CRIPT (UniProt Q9P021)
inactive: [1] -0.008 | [2] 0.071 | [3] -0.127 | [4] -0.039 | [19] 0.097 | [5] 0 | [20] 0.025 | [6] -0.056 | [7] 0.011 | [8] 0.025 | [9] -0.022 | [10] 0.046 | [11] 0.011 | [12] 0.052 | [13] -0.057 | [14] -0.032 | [15] 0.061 | [16] -0.042 | [17] 0.047 | [18] -0.015

COQ10B (UniProt Q9H8M1)
inactive: [1] -0.057 | [2] 0.014 | [3] 0.423 | [4] 0.328 | [19] 0.087 | [6] -0.051 | [7] 0.141 | [8] -0.177 | [9] -0.299 | [13] 0.121 | [15] -0.139 | [16] -0.048

COX19 (UniProt Q49B96)
inactive: [1] -0.009 | [2] 0.164 | [3] 0.053 | [4] 0.036 | [19] 0.176 | [5] -0.09 | [20] -0.016 | [6] -0.086 | [7] 0.038 | [8] 0.003 | [9] -0.049 | [10] -0.001 | [11] 0.009 | [12] -0.01 | [13] -0.001 | [14] 0 | [15] 0.024 | [16] 0.039 | [17] -0.01 | [18] 0.044

CPEB2 isoform 9 (UniProt Q7Z5Q1)
inactive: [1] -0.043 | [2] 0.209 | [3] -0.272 | [4] 0.142 | [19] 0.04 | [20] -0.048 | [6] 0.08 | [7] 0.225 | [8] -0.024 | [9] 0 | [13] -0.098 | [15] -0.119 | [16] 0.087 | [17] -0.188

CPT2 (UniProt P23786)
active: [1] 0.701 | [6] 1.04 | [18] 0.763
inactive: [2] -0.42 | [3] 0.06 | [4] -0.01 | [5] 0.119 | [7] -0.019 | [8] -0.306 | [9] -0.115 | [10] 0.008 | [11] 0.096 | [12] -0.003 | [13] 0.217 | [14] 0.047 | [15] 0.268 | [16] 0.265 | [17] -0.076

CRELD2 isoform 5 (UniProt Q6UXH1)
inactive: [1] 0 | [2] 0.063 | [3] -0.084 | [4] -0.007 | [19] 0.03 | [5] 0.004 | [20] -0.015 | [6] -0.043 | [7] 0.063 | [8] 0.008 | [9] -0.095 | [10] -0.055 | [11] 0.019 | [12] -0.089 | [13] -0.01 | [14] -0.027 | [15] 0.027 | [16] 0.026 | [17] 0.109 | [18] 0.004

COMMD9 (UniProt Q9P000)
inactive: [1] -0.139 | [2] -0.056 | [3] 0.197 | [4] 0.025 | [19] 0.121 | [5] 0.103 | [20] 0.151 | [6] 0.064 | [7] 0.051 | [8] 0.098 | [9] 0.031 | [10] -0.019 | [11] 0.015 | [12] 0.01 | [13] 0.048 | [14] -0.042 | [15] -0.05 | [16] 0.082 | [17] 0.073 | [18] 0.033

CRBN (UniProt Q96SW2)
inactive: [1] -0.024 | [2] 0.014 | [3] 0.019 | [4] -0.022 | [19] 0.06 | [5] -0.034 | [20] 0.023 | [6] -0.043 | [7] -0.009 | [8] -0.007 | [9] -0.05 | [10] -0.009 | [11] 0 | [12] 0.017 | [13] -0.032 | [14] -0.017 | [15] 0.011 | [16] 0.017 | [17] 0.056 | [18] 0.046

COQ7 (UniProt Q99807)
inactive: [1] 0.113 | [2] -0.163 | [3] 0.062 | [4] 0.007 | [6] 0.019 | [7] 0.009 | [8] -0.181 | [9] -0.168 | [10] -0.062 | [11] 0.006 | [12] -0.103 | [13] -0.006 | [14] -0.033 | [15] 0.055 | [16] 0.095 | [17] 0.029 | [18] 0.055
active: [5] -0.359

CSNK1A1 (UniProt P48729)
inactive: [1] -0.093 | [2] -0.115 | [3] -0.114 | [4] -0.073 | [5] 0.014 | [6] 0.017 | [7] 0.024 | [8] -0.125 | [9] -0.044 | [10] -0.156 | [11] -0.106 | [12] -0.008 | [13] 0.011 | [14] 0.033 | [15] -0.118 | [16] -0.055 | [17] 0.022 | [18] -0.086

COPS8 (UniProt Q99627)
inactive: [1] -0.017 | [2] 0.07 | [3] 0.13 | [4] -0.148 | [5] 0.048 | [6] 0.054 | [7] 0.107 | [8] 0.05 | [9] -0.021 | [10] 0.025 | [11] 0.018 | [12] -0.008 | [13] 0.006 | [14] 0.007 | [15] 0.107 | [16] 0.146 | [17] -0.017 | [18] 0.025
